Results are given in words; binding and its absence hold for the method and conditions named. In cells and extracts the contact can be indirect.

The values below come from paper PMC6221024.

The target in this assay is T1, syndecan‐4 (rat (endogenous in soleus muscle)) (UniProt P34901).
T1 sequence (chain, heparan sulfate chains attached to the ectodomain): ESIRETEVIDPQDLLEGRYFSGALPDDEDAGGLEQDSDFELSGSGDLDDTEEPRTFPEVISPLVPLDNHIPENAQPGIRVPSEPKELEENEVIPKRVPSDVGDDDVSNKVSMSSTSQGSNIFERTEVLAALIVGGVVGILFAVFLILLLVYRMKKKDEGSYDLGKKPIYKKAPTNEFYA
The assay is described as follows: co-IP; rat soleus muscle homogenates, un-injured (day 0) and 3 days after notexin injury; pre-cleared with Protein A/G beads; overnight with rabbit anti-myostatin (AB3239) or anti-SDC4 antibody, then Protein A/G; washed with 25 mM Tris, 150 mM NaCl, pH 7.2; eluted with 0.2 M glycin pH 2.5; immunoblot.

Turning to “mature myostatin (from UniProt O35312 268-376) (ligand)”, the binding result was “no binding”.
